# Results from one PubChem assay

From PubChem BioAssay record AID504749 (NCATS, 2011).

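A panel of P. falciparum strains inside erythrocytes is exposed to compounds for three days, then a DNA-binding dye reports the amount of parasite DNA. Each compound was titrated across a series from about 0.000037 to 29 µM. The number is the fitted AC50, the concentration giving a half-maximal change in signal; a lower value means higher potency, whether the curve shows a decrease or an increase. Calls follow the curve class and fit quality: every row here is inconclusive, covering signal-raising curves and weak, poorly fitted, partial or highest-dose-only inhibition curves.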

Values are in µM. All entries here are filed as inconclusive. These entries are mostly ones the record files as inconclusive; other results of the assay are not listed here. A potency from a partial, single-point or poor curve is only a rough figure. Some entries filed as inconclusive have a full curve.

SMILES | condition | Potency (µM) | curve
CC1OC(OC2C(O)CC(OC3C(O)CC(OC4CCC5(C)C(CCC6C5CCC5(C)C(C7=CC(=O)OC7)CCC65O)C4)OC3C)OC2C)CC(O)C1O (stereo unspecified) | DIV14 | 10.69 | inhibitor, partial curve
CC1OC(OC2C(O)CC(OC3C(O)CC(OC4CCC5(C)C(CCC6C5CCC5(C)C(C7=CC(=O)OC7)CCC65O)C4)OC3C)OC2C)CC(O)C1O (stereo unspecified) | ATS95 | 14.13 | inhibitor, single point
CC1OC(OC2C(O)CC(OC3C(O)CC(OC4CCC5(C)C(CCC6C5CCC5(C)C(C7=CC(=O)OC7)CCC65O)C4)OC3C)OC2C)CC(O)C1O (stereo unspecified) | CP237 | 5.012 | inhibitor, partial curve
CC1OC(OC2C(O)CC(OC3C(O)CC(OC4CCC5(C)C(CCC6C5CCC5(C)C(C7=CC(=O)OC7)CCC65O)C4)OC3C)OC2C)CC(O)C1O (stereo unspecified) | GB4 | 9.528 | inhibitor, partial curve, poor fit
CC(C)(C)NC[C@H](O)COc1nsnc1N1CCOCC1 | FAB9 | 11.22 | inhibitor, single point
CC(C)(C)NC[C@H](O)COc1nsnc1N1CCOCC1 | C2A | 12.59 | inhibitor, single point
CC(C)(C)NC[C@H](O)COc1nsnc1N1CCOCC1 | ATS95 | 17.78 | inhibitor, single point
CC(C)(C)NC[C@H](O)COc1nsnc1N1CCOCC1 | CP297 | 19.01 | inhibitor, partial curve, poor fit
CC(C)(C)NC[C@H](O)COc1nsnc1N1CCOCC1 | CP238 | 17.78 | inhibitor, single point
CC(C)(C)NC[C@H](O)COc1nsnc1N1CCOCC1 | CP194 | 19.01 | inhibitor, single point
CC(C)(C)NC[C@H](O)COc1nsnc1N1CCOCC1 | CP185 | 11.22 | inhibitor, single point
CC(C)(C)NC[C@H](O)COc1nsnc1N1CCOCC1 | CP286 | 11.22 | inhibitor, single point
CC(C)(C)NC[C@H](O)COc1nsnc1N1CCOCC1 | PC49 | 11.22 | inhibitor, single point
CC(C)(C)NC[C@H](O)COc1nsnc1N1CCOCC1 | AA1029 | 11.22 | inhibitor, single point
CC(C)(C)NC[C@H](O)COc1nsnc1N1CCOCC1 | CP217 | 10 | inhibitor, single point
CC(C)(C)NC[C@H](O)COc1nsnc1N1CCOCC1 | CP252 | 17.78 | inhibitor, single point
CC(C)(C)NC[C@H](O)COc1nsnc1N1CCOCC1 | CP256 | 10 | inhibitor, single point
CC(C)(C)NC[C@H](O)COc1nsnc1N1CCOCC1 | CP215 | 19.01 | inhibitor, single point
CC(C)(C)NC[C@H](O)COc1nsnc1N1CCOCC1 | CP250 | 12.59 | inhibitor, single point
CC(C)(C)NC[C@H](O)COc1nsnc1N1CCOCC1 | CP192 | 13.46 | inhibitor, partial curve, poor fit
CC(C)(C)NC[C@H](O)COc1nsnc1N1CCOCC1 | CP247 | 12.59 | inhibitor, single point
CC(C)(C)NC[C@H](O)COc1nsnc1N1CCOCC1 | CP325 | 16.94 | inhibitor, single point
CC(C)(C)NC[C@H](O)COc1nsnc1N1CCOCC1 | JCK | 17.78 | inhibitor, single point
CC(C)(C)NC[C@H](O)COc1nsnc1N1CCOCC1 | CP268 | 16.94 | inhibitor, single point
CC(C)(C)NC[C@H](O)COc1nsnc1N1CCOCC1 | AS120 | 17.78 | inhibitor, single point
CC(C)(C)NC[C@H](O)COc1nsnc1N1CCOCC1 | DIV30 | 19.01 | inhibitor, single point
CC(C)(C)NC[C@H](O)COc1nsnc1N1CCOCC1 | CP211 | 19.01 | inhibitor, single point
CC(C)(C)NC[C@H](O)COc1nsnc1N1CCOCC1 | CP203 | 19.01 | inhibitor, single point
CC(C)(C)NC[C@H](O)COc1nsnc1N1CCOCC1 | CP329 | 13.46 | inhibitor, single point
CN(C)CC[C@@H](c1ccc(Br)cc1)c1ccccn1 | DIV30 | 3.013 | inhibitor, partial curve
CN(C)CC[C@@H](c1ccc(Br)cc1)c1ccccn1 | CP252 | 10 | inhibitor, partial curve
CN(C)CC[C@@H](c1ccc(Br)cc1)c1ccccn1 | TAB113 | 11.22 | inhibitor, partial curve, poor fit
CN(C)CC[C@@H](c1ccc(Br)cc1)c1ccccn1 | TAB109 | 5.012 | inhibitor, partial curve
CN(C)CC[C@@H](c1ccc(Br)cc1)c1ccccn1 | CP265 | 8.912 | inhibitor, partial curve
CN(C)CC[C@@H](c1ccc(Br)cc1)c1ccccn1 | PC15 | 11.22 | inhibitor, single point
CN(C)CC[C@@H](c1ccc(Br)cc1)c1ccccn1 | ATS95 | 10 | inhibitor, partial curve
CN(C)CC[C@@H](c1ccc(Br)cc1)c1ccccn1 | CP185 | 11.22 | inhibitor, single point
CN(C)CC[C@@H](c1ccc(Br)cc1)c1ccccn1 | CP237 | 1.585 | inhibitor, full curve
CN(C)CC[C@@H](c1ccc(Br)cc1)c1ccccn1 | P94_40 | 3.981 | inhibitor, partial curve
CN(C)CC[C@@H](c1ccc(Br)cc1)c1ccccn1 | CP194 | 7.569 | inhibitor, partial curve
CN(C)CC[C@@H](c1ccc(Br)cc1)c1ccccn1 | CP335 | 4.776 | inhibitor, partial curve, poor fit
CN(C)CC[C@@H](c1ccc(Br)cc1)c1ccccn1 | CP215 | 8.492 | inhibitor, partial curve, poor fit

Once more, the final 2:

SMILES,condition,Potency (µM),curve
CN(C)CC[C@@H](c1ccc(Br)cc1)c1ccccn1,CP335,4.776,"inhibitor, partial curve, poor fit"
CN(C)CC[C@@H](c1ccc(Br)cc1)c1ccccn1,CP215,8.492,"inhibitor, partial curve, poor fit"